Results taken from PubChem BioAssay AID1671190 (National Center for Advancing Translational Sciences (NCATS), 2021).
Where “and” joins values, the source holds several entries; their conditions need not be identical. Identical values can stand only once. The whole screen tested about 580,000 compounds, of which about 6,100 (1.1%) were called active. The inconclusive results got no clear call from the source; some entries with a clear call stand among them for comparison. The call rests on the fitted dose curve; in most records, active means well fitted inhibition curve with a large enough effect; inconclusive means small, poorly fitted or top-dose-only effect, or another doubt; inactive means no such curve, though single readings can be large or run the other way. A potency beside an inconclusive call is a rough fit, not a confirmed value.

The chains behind the UniProt entries cited, without tags or fusion partners. Where a name states a change or a piece, a line headed by the entry shows the natural chain unless it says otherwise.
UniProt P18054: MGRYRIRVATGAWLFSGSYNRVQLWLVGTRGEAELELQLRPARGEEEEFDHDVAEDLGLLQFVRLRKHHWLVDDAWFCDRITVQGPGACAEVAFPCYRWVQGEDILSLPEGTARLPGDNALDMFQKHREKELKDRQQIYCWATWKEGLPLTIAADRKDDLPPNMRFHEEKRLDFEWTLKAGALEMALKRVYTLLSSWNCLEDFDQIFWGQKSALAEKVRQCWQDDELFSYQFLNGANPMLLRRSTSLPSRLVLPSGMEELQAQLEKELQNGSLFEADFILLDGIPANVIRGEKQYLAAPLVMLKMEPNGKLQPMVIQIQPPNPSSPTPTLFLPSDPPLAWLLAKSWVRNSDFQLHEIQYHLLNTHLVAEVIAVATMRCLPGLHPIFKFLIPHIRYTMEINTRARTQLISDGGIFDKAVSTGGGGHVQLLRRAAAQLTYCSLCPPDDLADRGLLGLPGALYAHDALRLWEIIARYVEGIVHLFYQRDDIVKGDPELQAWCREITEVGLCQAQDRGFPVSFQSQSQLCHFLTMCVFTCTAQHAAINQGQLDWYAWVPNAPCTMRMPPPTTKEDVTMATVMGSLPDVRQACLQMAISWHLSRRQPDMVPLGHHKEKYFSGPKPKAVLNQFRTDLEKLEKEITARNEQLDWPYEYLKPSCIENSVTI

target: Polyunsaturated fatty acid lipoxygenase ALOX12 (Homo sapiens) (UniProt P18054); test: Primary qHTS assay for inhibitors of human arachidonate 12S-lipoxygenase (ALOX12): Round 2; conditions: purified 12hLO, xylenol orange hydroperoxide absorbance; activity change, negative = inhibition: at 108 µM (top of the series) unless noted
Method in brief: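 Hydroperoxide product was detected by ferrous iron/xylenol orange as the 573 to 405 nm absorbance ratio. Arachidonic acid at 40 uM (final) was turned over for 30 min at room temperature by 150 nM human 12hLO, pH 7.0 Hepes buffer, after 15 min compound preincubation.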
On the % scale 0 is the no-effect control and ±100 the full control effect; potency means the concentration at half of the fitted maximal effect.

SMILES | Potency | activity change, negative = inhibition
COP(=O)(OC)c1ccc(NCc2cc(O)ccc2O)cc1 | inconclusive: 44.7 µM [inhibitor, partial curve] | –
CCn1c(C(=O)NCc2cccc(Br)c2)cc2oc3ccccc3c21 | – | inactive: -27.2%
Cc1cccc(NC(=O)CCSc2nncn2C)c1 | inconclusive: 158 µM [inhibitor, partial curve, poor fit] | –
COC(=O)c1ccc(NC(=O)c2c(NCc3ccc(C)o3)sc3c2CCCC3)cc1 | inconclusive: 50.1 µM [inhibitor, partial curve, poor fit] | –
COc1cccc(S(=O)c2c(C)cc(C)cc2C)c1 (stereo not drawn) | inconclusive: 112 µM [inhibitor, partial curve, poor fit] | –
COC(=O)c1ccc(COC(=O)c2cnc(Cl)c(Cl)c2)cc1 | inconclusive: 158 µM [inhibitor, partial curve, poor fit] | –
O=S(=O)(Nc1ccc(Cl)cc1NS(=O)(=O)c1ccccc1)c1ccccc1 | inconclusive: 7.94 µM [inhibitor, partial curve, poor fit] | –
CC1=CC2(C)NC(=O)C(C)C12 (stereo not drawn) | inconclusive: 5.62 µM [inhibitor, full curve, poor fit] | –
CCc1nnc(NC(=O)c2cc(=O)c3cc(C)c(C)cc3o2)s1 | inconclusive: 56.2 µM [inhibitor, partial curve, poor fit] | –
CC(C)c1onc(C(=O)N2CCN(C(c3ccccc3)c3ccccc3)CC2)c1[N+](=O)[O-] | – | inactive: 351%
Cc1ccc(CN2CC(C(=O)Nc3ccc(S(=O)(=O)N4CCCCC4)cc3)CC2=O)cc1 (stereo not drawn) | inconclusive: 89.1 µM [inhibitor, single point] | –
COc1ccc(-c2cc(N3CCCC(NC(=O)c4ccc(C)c(F)c4)C3)n[nH]2)cc1 (stereo not drawn) | inconclusive: 20 µM [inhibitor, full curve, poor fit] | –
COc1ccccc1OC(C)C(=O)NCC1(N2CCOCC2)CCCCC1 (stereo not drawn) | inconclusive: 15.8 µM [inhibitor, full curve, poor fit] | –
Cc1ccc(-c2nc3c(Cl)cc(Cl)cc3c(=O)n2O)cc1 | inconclusive: 100 µM [inhibitor, partial curve, poor fit] | –
CN1CCN(c2ccc(CNC(=O)c3ccc(-c4ccc(F)c(F)c4)c4ccoc34)cc2)CC1 | inconclusive: 89.1 µM [inhibitor, partial curve, poor fit] | –
COc1ccc(S(=O)(=O)Nc2cc3c4c(c2)CCN4C(=O)CC3)cc1OC | inconclusive: 141 µM [inhibitor, partial curve, poor fit] | –
Ic1ccc(-c2csc(Nc3ccc4c(c3)OCO4)n2)cc1 | inconclusive: 4.47 µM [inhibitor, full curve, poor fit] | –
c1ccc2[nH]c(-c3ccnc4ccccc34)nc2c1 | inactive and inconclusive: 6.31 µM [inhibitor, partial curve, poor fit] | –
Cc1nn(C)c2ncc(NC(=O)CCc3ncc(-c4ccccc4)o3)cc12 | – | inactive: -28.2%
CC(CC(=O)OCC(=O)NCc1ccc(Cl)cc1)c1ccccc1 (stereo not drawn) | inconclusive: 63.1 µM [inhibitor, partial curve, poor fit] | –
Cc1c(O)ccc2c(=O)c(-c3nc4ccccc4s3)coc12 | inconclusive: 100 µM [inhibitor, single point] | –

SMILES | Potency | activity change, negative = inhibition
CCCCC(CC)C(=O)NC12CC3CC(CC(C3)C1)C2 (stereo not drawn) | – | inactive: 28.2%
COCCn1cc2c3c(cccc31)CN(C(=O)c1c(F)cccc1Cl)CC2 | inconclusive: 70.8 µM [inhibitor, partial curve] | –
CN(C)/C=C/C(=O)c1ccc(S(=O)(=O)c2ccccc2)cc1 | inconclusive: 44.7 µM [inhibitor, partial curve, poor fit] | –
COc1cccc(-c2nc(N3CCOCC3)cc3c2CN(CC2CC2)C3=O)c1 | inconclusive: 112 µM [inhibitor, single point] | –
CCc1nc2c(OCCn3cccc3)cccn2c1N(C)C(=O)c1ccc(OC)cc1 | inconclusive: 7.08 µM [inhibitor, full curve, poor fit] | –
CC(C)NC(=O)c1cc(F)c(F)cc1Cl | inconclusive: 0.447 µM [inhibitor, full curve, poor fit] | –
O=C(OCC(=O)c1ccc(Cl)s1)c1ccc(CO)cc1 | inconclusive: 50.1 µM [inhibitor, partial curve, poor fit] | –
COc1ccc(S(=O)(=O)NCCSCc2ccccc2C)cc1Br | inconclusive: 2.24 µM [inhibitor, full curve, poor fit] | –
CC(C)c1nc2c(c(-c3ccc(O)cc3)n1)CCN(Cc1cccc3ccccc13)CC2 | – | inactive: -0.113%
COc1ccc(OCC(=O)N2CCC(Cc3nc(-c4ccc(OC)cc4)no3)CC2)cc1 | inconclusive: 35.5 µM [inhibitor, full curve, poor fit] | –
Cc1csc2c(N3CCCCC3)ncnc12 | inconclusive: 112 µM [inhibitor, partial curve, poor fit] | –
O=C1NC(=NCc2ccccc2)S/C1=C/c1ccc(O)cc1 | inconclusive: 50.1 µM [inhibitor, partial curve, poor fit] | –
CCOC(=O)c1c(NC(=O)c2ccccc2)sc2c(O)c(CN(CC)CC)ccc12 | inconclusive: 17.8 µM [inhibitor, partial curve, poor fit] | –
CCCCN(CC)C(=O)c1oc2ccc(S(=O)(=O)N3CCCC3)cc2c1C | – | inactive: -17.1%
CCCc1noc(-c2ccn3c(CNC(=O)c4ccc5ccccc5n4)nnc3c2)n1 | inconclusive: 50.1 µM [inhibitor, partial curve, poor fit] | –
COc1ccc(CN2CCC(n3nccc3NC(=O)c3cccc(F)c3)CC2)cc1O | – | inactive: -9.81%
CCCc1nc(SC)ncc1C(=O)NCCc1ccc(Cl)cc1 | inconclusive: 39.8 µM [inhibitor, partial curve, poor fit] | –
COCCn1c(SCC(=O)c2ccc3c(c2)OCCO3)nnc1C(C)C | inconclusive: 10 µM [inhibitor, partial curve, poor fit] | –
COc1ccccc1/C=C/C=C(/C#N)c1nc2ccccc2[nH]1 | inconclusive: 126 µM [inhibitor, single point] | –
Cc1ccc(S(=O)(=O)Nc2nnc(C(C)(C)C)s2)cc1 | inconclusive: 44.7 µM [inhibitor, partial curve] | –
Cc1ccc2[nH]c(=O)c(CNc3cccc(C)c3C)cc2c1 | inconclusive: 100 µM [inhibitor, partial curve, poor fit] | –

SMILES | Potency | activity change, negative = inhibition
COc1cc2nc(SCC(=O)NCc3ccco3)n(Cc3ccc(Cl)cc3)c(=O)c2cc1OC | inconclusive: 89.1 µM [inhibitor, partial curve, poor fit] | –
COc1ccc(Cl)cc1-c1ccc2c(c1)C(=O)N1CCN(C(=O)c3ccccc3)C[C@@H]1C(=O)N2 | inconclusive: 89.1 µM [inhibitor, partial curve, poor fit] | –
Cc1ccc(C(NC(=O)COc2ccccc2)c2cccs2)cc1 (stereo not drawn) | – | inactive: 0.189%
COc1ccc(C(=O)Nc2nc(CC(=O)NCCc3ccccc3)cs2)cc1 | inconclusive: 50.1 µM [inhibitor, single point] | –
CCN(CC)c1ccc(/C=N/N2C(=O)c3ccccc3C2=O)cc1 | – | inactive: 4.06%
Cc1cccc(NC(=O)CCC(=O)N/N=C/c2ccc(O)cc2O)c1 | inconclusive: 56.2 µM [inhibitor, partial curve, poor fit] | –
CC(C)CCn1nc(C(=O)OCC(=O)c2ccc3c(c2)NC(=O)CO3)c2ccccc2c1=O | – | inactive: 11.2%
CN(O)/C=C1\C(=O)Nc2ccccc21 | inconclusive: 0.447 µM [inhibitor, full curve, poor fit] | –
Cc1ccc(NC(=O)N2CCC3(CC2)OCCO3)cc1C | – | inactive: 33.6%
C1=C(CCNc2ncnc3c2cnn3-c2ccccc2)CCCC1 | inconclusive: 50.1 µM [inhibitor, partial curve, poor fit] | –
O=c1c2cc(F)ccc2sn1-c1ccccc1Cl | active: 0.447 µM | –
Cc1csc(NC(=O)CSc2nsc(SCC(=O)Nc3nc(C)cs3)c2C#N)n1 | inconclusive: 2 µM [inhibitor, full curve, poor fit] | –
CCOc1ccc(-c2cc3c(=O)n(CCNC(=O)c4ccc(OC)cc4C)ccn3n2)cc1 | inconclusive: 14.1 µM [inhibitor, full curve, poor fit] | –
S=C(NCc1ccc(Cl)cc1)NCc1ccc(Cl)c(Cl)c1 | – | inactive: -106%
NC(c1ccccc1)c1csc(NC(=O)Nc2ccccc2Oc2ccccc2)n1 (stereo not drawn) | inconclusive: 70.8 µM [inhibitor, partial curve, poor fit] | –
S=C(Nc1ccc(Br)cc1)NC1CCN(Cc2ccccc2)CC1 | inconclusive: 79.4 µM [inhibitor, partial curve, poor fit] | –
CN(C)C(=O)c1ccc(-c2cc(NCc3cccnc3)ncn2)cc1 | inconclusive: 1.58 µM [inhibitor, full curve, poor fit] | –
CCCCn1c(SCc2ccc(Cl)cc2)nc2c1c(=O)[nH]c(=O)n2C | inconclusive: 100 µM [inhibitor, single point] | –
CN(C)CC1(O)CCC2(CCN(C(=O)c3ccsc3)CC2)CC1 | – | inactive: 53.9%
COc1cccc(-c2nc(C#N)c(N3CCN(C(=O)c4ccccc4)CC3)o2)c1 | inconclusive: 141 µM [inhibitor, single point] | –
COc1cc(-c2coc3c(C(=O)NCc4ccncc4)cccc23)ccc1O | inconclusive: 50.1 µM [inhibitor, partial curve, poor fit] | –
